Source: the supplement of paper PMC10849652
Some of the results follow.

By UniProt entry, the sequences of proteins in these tests, tags left out. Where a name states a change or a piece, a line headed by the entry shows the natural chain unless it says otherwise.
UniProt Q14376: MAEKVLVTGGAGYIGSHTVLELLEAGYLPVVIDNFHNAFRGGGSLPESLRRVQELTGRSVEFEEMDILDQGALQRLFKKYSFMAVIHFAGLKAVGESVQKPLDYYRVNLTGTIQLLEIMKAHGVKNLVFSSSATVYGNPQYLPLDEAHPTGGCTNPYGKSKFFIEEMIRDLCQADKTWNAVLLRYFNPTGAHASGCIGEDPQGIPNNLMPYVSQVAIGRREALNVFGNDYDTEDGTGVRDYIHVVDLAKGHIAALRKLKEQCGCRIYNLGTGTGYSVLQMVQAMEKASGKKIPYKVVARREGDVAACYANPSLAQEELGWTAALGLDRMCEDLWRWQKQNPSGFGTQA
UniProt Q8TEQ6: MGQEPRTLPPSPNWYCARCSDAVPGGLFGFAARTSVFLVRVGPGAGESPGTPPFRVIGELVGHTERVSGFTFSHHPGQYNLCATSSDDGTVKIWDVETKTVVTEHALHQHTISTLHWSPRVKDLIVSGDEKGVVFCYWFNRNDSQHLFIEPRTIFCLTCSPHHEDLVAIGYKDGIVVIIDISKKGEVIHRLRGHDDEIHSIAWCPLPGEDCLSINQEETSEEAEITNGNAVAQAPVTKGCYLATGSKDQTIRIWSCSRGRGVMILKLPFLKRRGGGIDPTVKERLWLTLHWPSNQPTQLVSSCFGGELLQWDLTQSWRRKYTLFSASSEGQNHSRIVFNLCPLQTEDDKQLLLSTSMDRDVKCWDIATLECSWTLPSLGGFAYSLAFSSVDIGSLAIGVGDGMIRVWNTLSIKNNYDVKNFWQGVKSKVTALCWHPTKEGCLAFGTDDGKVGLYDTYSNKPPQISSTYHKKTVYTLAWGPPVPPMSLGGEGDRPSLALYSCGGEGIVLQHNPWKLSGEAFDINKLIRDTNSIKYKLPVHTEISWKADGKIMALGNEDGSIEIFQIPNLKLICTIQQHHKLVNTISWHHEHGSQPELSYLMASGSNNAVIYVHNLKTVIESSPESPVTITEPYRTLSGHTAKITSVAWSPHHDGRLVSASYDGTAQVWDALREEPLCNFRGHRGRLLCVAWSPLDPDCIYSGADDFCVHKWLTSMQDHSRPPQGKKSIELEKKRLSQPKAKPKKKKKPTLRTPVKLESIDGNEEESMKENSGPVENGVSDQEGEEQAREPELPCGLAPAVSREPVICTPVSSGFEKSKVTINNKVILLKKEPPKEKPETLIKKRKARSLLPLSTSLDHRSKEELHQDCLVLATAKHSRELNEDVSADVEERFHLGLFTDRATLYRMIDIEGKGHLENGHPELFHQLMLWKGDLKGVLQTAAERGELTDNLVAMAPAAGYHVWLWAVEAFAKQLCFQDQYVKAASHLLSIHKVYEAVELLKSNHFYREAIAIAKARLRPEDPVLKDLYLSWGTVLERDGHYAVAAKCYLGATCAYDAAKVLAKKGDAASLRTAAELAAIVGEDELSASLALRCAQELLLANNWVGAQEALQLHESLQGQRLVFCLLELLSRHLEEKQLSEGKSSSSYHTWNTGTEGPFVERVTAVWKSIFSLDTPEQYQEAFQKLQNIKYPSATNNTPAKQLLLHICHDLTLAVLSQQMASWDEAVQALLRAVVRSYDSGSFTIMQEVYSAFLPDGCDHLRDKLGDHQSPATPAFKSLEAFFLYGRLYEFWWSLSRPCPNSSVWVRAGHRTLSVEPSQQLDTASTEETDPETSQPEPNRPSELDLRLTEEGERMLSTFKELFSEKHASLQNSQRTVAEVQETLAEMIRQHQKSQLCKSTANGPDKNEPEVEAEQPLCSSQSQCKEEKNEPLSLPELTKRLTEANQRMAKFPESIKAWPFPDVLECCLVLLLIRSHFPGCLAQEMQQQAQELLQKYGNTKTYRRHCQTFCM
UniProt Q96CU9: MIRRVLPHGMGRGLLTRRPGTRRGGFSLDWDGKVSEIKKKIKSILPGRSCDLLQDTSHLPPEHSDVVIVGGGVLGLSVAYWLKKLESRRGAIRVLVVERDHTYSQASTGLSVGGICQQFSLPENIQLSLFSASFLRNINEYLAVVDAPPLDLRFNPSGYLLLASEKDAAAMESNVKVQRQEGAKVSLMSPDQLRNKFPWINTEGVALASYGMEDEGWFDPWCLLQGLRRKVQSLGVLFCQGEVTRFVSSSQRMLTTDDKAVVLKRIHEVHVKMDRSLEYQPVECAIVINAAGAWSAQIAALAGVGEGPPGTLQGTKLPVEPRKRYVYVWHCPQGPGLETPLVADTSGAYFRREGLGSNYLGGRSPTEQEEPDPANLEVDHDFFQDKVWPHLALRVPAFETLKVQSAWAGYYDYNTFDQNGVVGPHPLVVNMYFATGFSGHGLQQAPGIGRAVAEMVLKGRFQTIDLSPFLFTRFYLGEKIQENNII
UniProt Q96I24: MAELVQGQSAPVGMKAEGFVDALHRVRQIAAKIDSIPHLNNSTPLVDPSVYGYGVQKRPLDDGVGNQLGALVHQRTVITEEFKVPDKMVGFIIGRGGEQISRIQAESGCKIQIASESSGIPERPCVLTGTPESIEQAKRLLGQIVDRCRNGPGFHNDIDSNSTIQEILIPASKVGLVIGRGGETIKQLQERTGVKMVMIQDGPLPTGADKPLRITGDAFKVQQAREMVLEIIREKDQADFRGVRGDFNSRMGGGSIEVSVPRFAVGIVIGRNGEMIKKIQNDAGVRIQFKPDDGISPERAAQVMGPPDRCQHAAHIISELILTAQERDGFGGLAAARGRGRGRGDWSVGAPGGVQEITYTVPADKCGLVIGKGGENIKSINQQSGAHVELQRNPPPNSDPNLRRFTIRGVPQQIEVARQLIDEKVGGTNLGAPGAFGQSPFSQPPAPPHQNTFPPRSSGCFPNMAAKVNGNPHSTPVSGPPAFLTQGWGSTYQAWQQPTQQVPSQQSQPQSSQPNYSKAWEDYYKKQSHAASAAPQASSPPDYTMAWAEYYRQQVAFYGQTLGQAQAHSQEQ
UniProt P41250: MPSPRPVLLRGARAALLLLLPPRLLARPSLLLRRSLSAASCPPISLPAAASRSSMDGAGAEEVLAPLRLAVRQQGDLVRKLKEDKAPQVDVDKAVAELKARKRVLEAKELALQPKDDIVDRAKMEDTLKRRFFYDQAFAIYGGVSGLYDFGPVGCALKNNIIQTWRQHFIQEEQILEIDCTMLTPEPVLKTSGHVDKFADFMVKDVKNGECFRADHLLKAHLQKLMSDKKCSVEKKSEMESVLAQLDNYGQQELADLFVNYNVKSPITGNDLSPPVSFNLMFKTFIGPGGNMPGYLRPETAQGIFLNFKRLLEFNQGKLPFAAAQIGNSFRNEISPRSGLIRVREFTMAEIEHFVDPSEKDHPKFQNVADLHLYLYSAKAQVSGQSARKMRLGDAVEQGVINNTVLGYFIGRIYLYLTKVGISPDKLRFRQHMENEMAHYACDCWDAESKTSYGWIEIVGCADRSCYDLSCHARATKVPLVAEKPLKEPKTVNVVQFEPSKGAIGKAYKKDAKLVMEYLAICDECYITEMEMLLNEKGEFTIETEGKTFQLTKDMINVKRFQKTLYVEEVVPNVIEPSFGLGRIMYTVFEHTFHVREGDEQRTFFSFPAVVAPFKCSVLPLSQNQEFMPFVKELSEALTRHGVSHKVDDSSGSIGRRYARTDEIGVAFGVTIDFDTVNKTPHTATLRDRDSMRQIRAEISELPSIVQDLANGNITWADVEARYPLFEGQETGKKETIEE
UniProt Q9NY12: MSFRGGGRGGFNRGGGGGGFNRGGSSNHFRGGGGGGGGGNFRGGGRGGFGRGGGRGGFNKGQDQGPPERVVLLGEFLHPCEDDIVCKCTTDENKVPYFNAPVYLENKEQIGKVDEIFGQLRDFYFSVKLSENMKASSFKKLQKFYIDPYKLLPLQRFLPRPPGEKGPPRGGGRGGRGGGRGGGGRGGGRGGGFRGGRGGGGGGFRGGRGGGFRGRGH
UniProt Q969S9: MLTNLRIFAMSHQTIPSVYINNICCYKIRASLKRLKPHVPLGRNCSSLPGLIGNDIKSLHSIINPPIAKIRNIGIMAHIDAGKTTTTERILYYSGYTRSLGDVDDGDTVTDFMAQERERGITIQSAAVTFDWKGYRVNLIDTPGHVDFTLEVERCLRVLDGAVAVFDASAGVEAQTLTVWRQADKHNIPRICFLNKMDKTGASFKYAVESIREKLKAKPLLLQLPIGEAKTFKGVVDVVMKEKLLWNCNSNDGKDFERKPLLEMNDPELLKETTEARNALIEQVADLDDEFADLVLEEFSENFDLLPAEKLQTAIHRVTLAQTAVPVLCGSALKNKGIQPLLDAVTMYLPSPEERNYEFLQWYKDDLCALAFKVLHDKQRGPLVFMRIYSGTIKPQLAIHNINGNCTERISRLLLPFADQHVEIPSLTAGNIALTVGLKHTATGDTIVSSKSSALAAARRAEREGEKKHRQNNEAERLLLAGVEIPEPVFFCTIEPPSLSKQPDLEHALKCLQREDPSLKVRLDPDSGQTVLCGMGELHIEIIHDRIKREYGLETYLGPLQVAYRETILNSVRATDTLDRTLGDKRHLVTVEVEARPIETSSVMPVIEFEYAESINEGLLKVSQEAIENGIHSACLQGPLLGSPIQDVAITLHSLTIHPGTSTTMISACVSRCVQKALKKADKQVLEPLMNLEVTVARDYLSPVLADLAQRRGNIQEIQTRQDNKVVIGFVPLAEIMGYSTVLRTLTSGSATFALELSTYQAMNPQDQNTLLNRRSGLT
UniProt P85037: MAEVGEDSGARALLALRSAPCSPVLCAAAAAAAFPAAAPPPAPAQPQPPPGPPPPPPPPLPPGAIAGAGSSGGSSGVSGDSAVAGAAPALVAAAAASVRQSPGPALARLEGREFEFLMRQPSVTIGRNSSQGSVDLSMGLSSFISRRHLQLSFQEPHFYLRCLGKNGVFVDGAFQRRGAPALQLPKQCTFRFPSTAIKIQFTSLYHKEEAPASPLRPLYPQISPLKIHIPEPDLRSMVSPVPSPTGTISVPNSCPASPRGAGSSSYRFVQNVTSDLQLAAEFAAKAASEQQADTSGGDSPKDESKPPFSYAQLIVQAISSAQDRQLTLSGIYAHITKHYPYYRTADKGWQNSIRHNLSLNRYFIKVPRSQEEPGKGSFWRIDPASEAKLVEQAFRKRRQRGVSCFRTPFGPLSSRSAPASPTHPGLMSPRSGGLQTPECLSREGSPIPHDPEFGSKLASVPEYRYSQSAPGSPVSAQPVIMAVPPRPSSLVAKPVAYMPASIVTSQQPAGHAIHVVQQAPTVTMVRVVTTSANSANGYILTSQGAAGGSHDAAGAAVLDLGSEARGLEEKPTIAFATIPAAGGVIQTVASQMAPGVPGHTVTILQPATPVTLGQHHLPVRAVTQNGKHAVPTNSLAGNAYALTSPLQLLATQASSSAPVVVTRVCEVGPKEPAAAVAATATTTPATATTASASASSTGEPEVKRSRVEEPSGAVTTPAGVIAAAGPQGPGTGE
UniProt Q8WXI9: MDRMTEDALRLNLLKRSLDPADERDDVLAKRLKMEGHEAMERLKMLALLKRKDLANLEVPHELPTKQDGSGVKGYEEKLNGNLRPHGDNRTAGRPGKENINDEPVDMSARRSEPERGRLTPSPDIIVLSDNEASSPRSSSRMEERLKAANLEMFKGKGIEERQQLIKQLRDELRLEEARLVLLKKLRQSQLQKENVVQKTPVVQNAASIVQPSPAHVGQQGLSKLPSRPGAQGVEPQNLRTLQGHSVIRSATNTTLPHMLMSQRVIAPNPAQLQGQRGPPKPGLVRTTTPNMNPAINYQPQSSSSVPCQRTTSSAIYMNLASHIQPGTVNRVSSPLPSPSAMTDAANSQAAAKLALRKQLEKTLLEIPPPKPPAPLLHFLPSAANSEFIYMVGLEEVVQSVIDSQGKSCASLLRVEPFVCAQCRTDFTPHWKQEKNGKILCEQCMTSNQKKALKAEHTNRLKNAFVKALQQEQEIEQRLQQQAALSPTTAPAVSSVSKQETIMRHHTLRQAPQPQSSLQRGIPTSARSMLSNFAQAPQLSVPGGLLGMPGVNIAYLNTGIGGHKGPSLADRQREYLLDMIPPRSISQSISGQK
UniProt Q9BTY2: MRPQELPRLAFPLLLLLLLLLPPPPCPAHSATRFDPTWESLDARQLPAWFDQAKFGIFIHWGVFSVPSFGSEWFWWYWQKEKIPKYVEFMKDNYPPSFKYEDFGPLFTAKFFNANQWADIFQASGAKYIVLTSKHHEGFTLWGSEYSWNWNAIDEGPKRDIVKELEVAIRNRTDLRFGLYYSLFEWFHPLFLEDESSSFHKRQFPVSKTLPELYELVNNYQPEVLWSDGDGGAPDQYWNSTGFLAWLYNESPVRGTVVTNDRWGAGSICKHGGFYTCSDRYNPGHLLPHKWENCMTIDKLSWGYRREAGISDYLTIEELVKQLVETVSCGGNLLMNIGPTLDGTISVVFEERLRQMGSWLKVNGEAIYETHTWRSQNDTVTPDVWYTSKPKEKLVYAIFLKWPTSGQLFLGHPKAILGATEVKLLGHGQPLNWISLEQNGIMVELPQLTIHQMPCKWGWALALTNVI

Legend:
Test in all cases: log2 fold change, soluble protein after heating vs DMSO (PISA); higher = thermal stabilisation; K562 lysate, 10 uM; active = over 0.2 and 3.5 SD of the protein, either way, in both replicates (recomputed)
ibrutinib = compound: C=CC(=O)N1CCC[C@@H](n2nc(-c3ccc(Oc4ccccc4)cc3)c3c(N)ncnc32)C1 [ibrutinib]
Method in brief: (§1)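 A 30 min treatment with 10 μM compound was applied to crude K562 extract at 1 mg/mL protein in PBS pH 7.4 with 1 mM MgCl2. Heating for 3 min spanned 48°C-58°C, after which aliquots were pooled, adjusted to 0.5% NP-40 at 4°C and spun at 21,000xg for 90 min. TMTpro 16plex LC-MS/MS of the supernatant, with channel sums equalised, gave values recorded as log-two fold change in thermal stability against solvent controls, from duplicates.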

[1] = compound: CC(=O)c1cnc2ccc(-c3cc(Cl)c(O)c(Cl)c3)nc2c1N[C@H]1CC[C@H](CN(C)C)CC1
Method in brief: as §1

ralimetinib = compound: CC(C)(C)Cn1c(N)nc2ccc(-c3[nH]c(C(C)(C)C)nc3-c3ccc(F)cc3)nc21 [ralimetinib]
Method in brief: as §1

[2] = compound: CC(C)(O)CC(=O)NCCn1ccc2ncnc(Nc3ccc(Oc4cccc(C(F)(F)F)c4)c(Cl)c3)c21
Method in brief: as §1

[3] = compound: CC(C)C1=C2N=C(C=C(N2N=C1)NCC3=CC=CC=C3)NCCCCCCN
Method in brief: as §1

[4] = compound: CC1=C(C(CC(=O)N1)C2=CC=C(C=C2)C(F)(F)F)C(=O)NC3=C(C=C4C(=C3)C=NN4)F
Method in brief: as §1

[5] = compound: CC1=C(C2=C(C=C1)C(=O)C3=CC=CC=C3N2CCCN)C
Method in brief: as §1

[6] = compound: CC1=C(C=C(C=C1)NC(=O)C2=CC(=CC=C2)C(C)(C)C#N)NC3=CC4=C(C=C3)N=CN(C4=O)C
Method in brief: as §1

[7] = compound: CC1=C(C=C(C=C1)NC(=O)C2=CC(=CC=C2)N(C)C)NC(=O)C3=CC=C(C=C3)O
Method in brief: as §1

[8] = compound: CC1=CC=C(C=C1)SC2=C3C=C(SC3=CN=C2)C(=O)N
Method in brief: as §1

vemurafenib = compound: CCCS(=O)(=O)Nc1ccc(F)c(C(=O)c2c[nH]c3ncc(-c4ccc(Cl)cc4)cc23)c1F [vemurafenib]
Method in brief: as §1

[9] = compound: CCCS(=O)(=O)Nc1ccc(F)c(C(=O)c2c[nH]c3ncc(Cl)cc23)c1F
Method in brief: as §1

barasertib = compound: CCN(CCCOc1ccc2c(Nc3cc(CC(=O)Nc4cccc(F)c4)[nH]n3)ncnc2c1)CCOP(=O)(O)O [barasertib]
Method in brief: as §1

[10] = compound: CC[C@@H]1C(=O)N(C)c2cnc(Nc3ccc(C(=O)NC4CCN(C)CC4)cc3OC)nc2N1C1CCCC1
Method in brief: as §1

volasertib = compound: CC[C@@H]1C(=O)N(C)c2cnc(Nc3ccc(C(=O)N[C@H]4CC[C@H](N5CCN(CC6CC6)CC5)CC4)cc3OC)nc2N1C(C)C [volasertib]
Method in brief: as §1

[11] = compound: CCn1c(C(=O)N(C2CC2)C2CC2)cc2c3c(ncn3C)c(Nc3cc(C)n(C)n3)nc21
Method in brief: as §1

[12] = compound: CCn1cc(-c2ccnc3[nH]c(-c4cccc(CN(C)C)c4)cc23)c(-c2ccc(NC(=O)N(C)C)cc2)n1
Method in brief: as §1

[13] = compound: CN1CCC(CNc2ccc3ncc(-c4cccc(OC(F)(F)F)c4)n3n2)CC1
Method in brief: as §1

saracatinib = compound: CN1CCN(CCOc2cc(OC3CCOCC3)c3c(Nc4c(Cl)ccc5c4OCO5)ncnc3c2)CC1 [saracatinib]
Method in brief: as §1

sotrastaurin = compound: CN1CCN(c2nc(C3=C(c4c[nH]c5ccccc45)C(=O)NC3=O)c3ccccc3n2)CC1 [sotrastaurin]
Method in brief: as §1

Measured: log2 fold change

GALE (UniProt Q14376)
inactive: ibrutinib -0.014 | [1] 0.021 | ralimetinib 0.089 | [2] -0.003 | [3] 0.005 | [4] 0.009 | [5] -0.009 | [6] -0.023 | [7] 0.024 | [8] 0.023 | vemurafenib -0.028 | [9] -0.015 | barasertib -0.006 | [10] -0.037 | volasertib -0.086 | [11] 0.065 | [12] -0.081 | [13] -0.002 | saracatinib -0.026 | sotrastaurin 0.114

GGA1 isoform 6 (UniProt Q9UJY5)
inactive: ibrutinib -0.042 | [1] -0.015 | ralimetinib -0.06 | [2] -0.039 | [3] -0.035 | [4] 0.008 | [5] 0.007 | [6] 0.018 | [7] 0.011 | [8] -0.027 | vemurafenib 0.038 | [9] -0.002 | barasertib 0.022 | [10] 0.05 | volasertib 0.005 | [11] -0.048 | [12] 0.006 | [13] -0.02 | saracatinib -0.006 | sotrastaurin 0.031

GEMIN5 (UniProt Q8TEQ6)
inactive: ibrutinib 0.012 | [1] -0.01 | ralimetinib 0.03 | [2] -0.001 | [3] 0.016 | [4] -0.02 | [5] -0.026 | [6] 0.005 | [7] 0.014 | [8] 0.007 | vemurafenib 0.006 | [9] 0.008 | barasertib 0.004 | [10] -0.085 | volasertib -0.069 | [11] 0.066 | [12] -0.052 | [13] -0.061 | saracatinib 0.018 | sotrastaurin 0.015

FOXRED1 (UniProt Q96CU9)
inactive: ibrutinib -0.032 | [1] -0.03 | ralimetinib 0.001 | [2] -0.004 | [3] -0.009 | [4] -0.024 | [5] -0.008 | [6] 0.002 | [7] 0.039 | [8] -0.027 | vemurafenib 0.003 | [9] 0.035 | barasertib 0.018 | [10] 0.047 | volasertib -0.01 | [11] 0.015 | [12] -0.07 | [13] 0.075 | saracatinib 0.009 | sotrastaurin -0.01

GATAD2A isoform 3 (UniProt Q86YP4)
inactive: ibrutinib 0.017 | [1] 0.008 | ralimetinib 0.023 | [2] 0.01 | [3] 0.012 | [4] -0.004 | [5] 0.005 | [6] 0.01 | [7] 0.016 | [8] -0.005 | vemurafenib -0.014 | [9] 0.019 | barasertib 0.008 | [10] 0.012 | volasertib -0.014 | [11] -0.004 | [12] -0.058 | [13] 0.022 | saracatinib 0.022 | sotrastaurin -0.002

GATA1 (UniProt P15976)
inactive: ibrutinib 0.041 | [1] -0.036 | ralimetinib 0.01 | [2] 0.039 | [3] 0.094 | [4] 0.027 | [5] 0.021 | [6] -0.113 | [7] -0.013 | [8] 0.006 | [9] 0.052 | barasertib 0.135 | volasertib -0.028 | [11] 0.04 | [12] 0.121 | [13] -0.128 | saracatinib 0.072 | sotrastaurin -0.03

FUBP3 (UniProt Q96I24)
inactive: ibrutinib 0.024 | [1] 0.002 | ralimetinib 0.021 | [2] -0.051 | [3] 0.014 | [4] -0.018 | [5] 0.072 | [6] -0.149 | [7] -0.003 | [8] -0.018 | vemurafenib -0.007 | [9] 0.019 | barasertib 0.048 | [10] 0.046 | volasertib -0.032 | [11] 0.042 | [12] 0.028 | [13] -0.012 | saracatinib 0.03 | sotrastaurin -0.077

GARS1 (UniProt P41250)
inactive: ibrutinib -0.001 | [1] 0.024 | ralimetinib -0.022 | [2] -0.014 | [3] 0.006 | [4] -0.049 | [5] -0.001 | [6] -0.014 | [7] -0.001 | [8] -0.001 | vemurafenib 0.012 | [9] -0.017 | barasertib -0.001 | [10] -0.013 | volasertib -0.008 | [11] -0.01 | [12] 0.001 | [13] 0.029 | saracatinib -0.011 | sotrastaurin -0.022

GAMT (UniProt Q14353)
inactive: ibrutinib 0.029 | [1] -0.008 | ralimetinib 0.019 | [2] 0.013 | [3] -0.041 | [4] 0.071 | [5] -0.009 | [6] -0.003 | [7] -0.003 | [8] 0.005 | vemurafenib 0.037 | [9] 0.045 | barasertib 0.112 | [10] 0.036 | volasertib 0.007 | [11] 0.011 | [12] 0.003 | [13] -0.029 | saracatinib -0.014 | sotrastaurin 0.018

GAR1 (UniProt Q9NY12)
inactive: ibrutinib 0 | [1] -0.006 | ralimetinib -0.015 | [2] -0.043 | [3] 0.012 | [4] 0.016 | [5] -0.031 | [6] 0.004 | [7] 0.014 | [8] 0.019 | vemurafenib 0.009 | [9] -0.003 | barasertib 0.105 | [10] 0.023 | volasertib 0.003 | [11] -0.001 | [12] 0.111 | [13] -0.09 | saracatinib 0.004 | sotrastaurin 0.013

GFM2 (UniProt Q969S9)
inactive: ibrutinib -0.064 | [1] -0.035 | ralimetinib 0.03 | [2] -0.025 | [3] -0.02 | [4] -0.056 | [5] 0.037 | [6] -0.047 | [7] 0.08 | [8] -0.032 | vemurafenib 0.021 | [9] -0.064 | barasertib -0.115 | [10] 0.018 | volasertib 0.148 | [11] 0.033 | [12] -0.031 | [13] -0.06 | saracatinib -0.014 | sotrastaurin 0.024

FOXK1 (UniProt P85037)
inactive: ibrutinib 0.033 | [1] 0.005 | ralimetinib 0.082 | [2] 0.063 | [3] -0.011 | [4] 0.018 | [5] 0.007 | [6] -0.025 | [7] -0.001 | [8] 0.011 | vemurafenib -0.01 | [9] 0.008 | barasertib 0.025 | [10] -0.007 | volasertib -0.019 | [11] 0.013 | [12] -0.014 | [13] 0.026 | saracatinib 0.005 | sotrastaurin -0.012

GALNT5 (UniProt Q7Z7M9)
inactive: ibrutinib 0.007 | [1] 0.003 | ralimetinib -0.028 | [2] -0.042 | [3] -0.017 | [4] 0.031 | [5] 0.038 | [6] -0.025 | [7] -0.003 | [8] -0.015 | vemurafenib 0.046 | [9] -0.011 | barasertib 0.028 | [10] 0.057 | volasertib 0.012 | [11] -0.039 | [12] -0.006 | [13] -0.046 | saracatinib 0.013 | sotrastaurin 0.021

GATAD2B (UniProt Q8WXI9)
inactive: ibrutinib -0.058 | [1] 0.012 | ralimetinib 0.013 | [2] -0.008 | [3] 0.019 | [4] 0.049 | [5] 0.039 | [6] -0.033 | [7] 0.061 | [8] 0.001 | vemurafenib -0.026 | [9] 0.023 | barasertib 0.051 | [10] 0.075 | volasertib 0.003 | [11] -0.026 | [12] 0.01 | [13] -0.043 | saracatinib -0.044 | sotrastaurin 0.009

FUBP1 (UniProt Q96AE4)
inactive: ibrutinib 0.088 | [1] 0.04 | ralimetinib 0.067 | [2] -0.042 | [3] 0.046 | [4] 0.063 | [5] -0.052 | [6] -0.024 | [7] -0.105 | [8] -0.002 | vemurafenib -0.079 | [9] 0.059 | barasertib -0.043 | [10] 0.054 | volasertib -0.008 | [11] -0.08 | [12] 0.085 | [13] 0.02 | saracatinib 0.053 | sotrastaurin 0.052

FUCA2 (UniProt Q9BTY2)
inactive: ibrutinib 0.029 | [1] 0.008 | ralimetinib -0.026 | [2] -0.021 | [3] 0.013 | [4] -0.016 | [5] -0.03 | [6] 0.006 | [7] -0.011 | [8] 0.046 | vemurafenib 0.023 | [9] -0.011 | barasertib -0.014 | [10] 0 | volasertib 0.007 | [11] -0.001 | [12] -0.154 | [13] 0.111 | saracatinib -0.01 | sotrastaurin -0.028

GAN (UniProt Q9H2C0)
inactive: ibrutinib -0.033 | [1] -0.007 | ralimetinib 0.013 | [2] -0.069 | [3] 0.004 | [4] -0.047 | [5] -0.04 | [6] 0.017 | [7] 0.001 | [8] -0.034 | vemurafenib 0.025 | [9] -0.005 | barasertib 0.004 | [10] 0.024 | volasertib -0.004 | [11] -0.024 | [12] -0.081 | [13] 0.062 | saracatinib 0.016 | sotrastaurin 0.026
